# From patent publication US11752211B2 (NOVARTIS AG, priority 2014, dated 2023)
# Assay: general procedure: Fmoc solid-phase peptide synthesis; 2-chlorotrityl chloride resin; Phenethylamine-AMEBA resin; HATU/DIEA
# Details: late stage modification step, TFA salt; acetate
substance,measurement,value
"pE-R—P—R-L-C*—H—N—[[(1α,8α,9α)-bicyclo[6.1.0]non-4-yn-9-ylmethoxy]carbonyl]-K-G-P-Nle-C*—F—OH(Disulfide C^6-C^12)",step yield,61%
